Test results published in patent US8592418B2, “5-aryl isoxazolines for controlling pests” (priority 2010, dated 2013).
Some of these results come from one statement about several compounds together. At least one structure is not confirmed: it was looked up by name or label, or the drawing left a doubt.

Columns and labels:
[1] = test system: Ctenocephalides felis (cat flea); assay: Activity in vitro against Ctenocephalides felis (cat flea), artificial blood feeding system; conditions: 100 ppm; adult fleas fed on treated blood for 24 hours
[2] = test system: Rhipicephalus sanquineus (dog tick); assay: Activity in vitro against Rhipicephalus sanquineus (dog tick), adult tick contact test; conditions: 640 ppm; 10 minutes contact, incubated 7 days at 28° C. and 80% relative humidity
[3] = test system: Rhipicephalus sanquineus nymphs; assay: Activity in vivo against Rhipicephalus sanquineus nymphs on Mongolian gerbils (per oral application); conditions: 100 mg/kg orally by gavage; Mongolian gerbils (Meriones unguiculatus); nymphs counted seven days after infestation
[4] = test system: Rhipicephalus sanquineus nymphs; assay: Activity in vivo against Rhipicephalus sanquineus nymphs on Mongolian gerbils (spray application); conditions: 100 mg/kg spray application; Mongolian gerbils (Meriones unguiculatus); infested day +1 (+2); nymphs counted seven days after infestation
[5] = test system: Ctenocephalides felis (cat flea); assay: Activity in vivo against Ctenocephalides felis (cat flea) on Mongolian gerbils (per oral application); conditions: 100 mg/kg orally by gavage; Mongolian gerbils (Meriones unguiculatus); evaluated 48 h after infestation

Row | Structure (SMILES) | efficacy (EC80), dead fleas [1] | efficacy (EC80), dead adult ticks [2] | efficacy (EC90), tick number reduction vs placebo (Abbot's formula) [3] | efficacy (EC80), tick number reduction vs placebo (Abbot's formula) [4] | efficacy (EC90), live fleas vs placebo (Abbot's formula) [5]
1 | Cc1cc(C2=NOC(c3cc(Cl)cc(Cl)c3)(C(F)(F)F)C2)sc1CNC(=O)C1CC1 (stereo not drawn) [Compound 1.1] | more than 80% | more than 80% | more than 90% | more than 80% | more than 90%
2 | CCC(=O)NCc1sc(C2=NOC(c3cc(Cl)cc(Cl)c3)(C(F)(F)F)C2)cc1C (stereo not drawn) [Compound 1.5, N-{5-[5-(3,5-dichloro-phenyl)-5-trifluoromethyl-4,5-dihydro-isoxazol-3-yl]-3-methyl-thiophen-2-ylmethyl}-propionamide] | more than 80% | more than 80% | more than 90% | more than 80% | more than 90%
3 | Cc1cc(C2=NOC(c3cc(Cl)cc(Cl)c3)(C(F)(F)F)C2)sc1CN (stereo not drawn) [Compound 1.6, C-{5-[5-(3,5-dichloro-phenyl)-5-trifluoromethyl-4,5-dihydro-isoxazol-3-yl]-3-methyl-thiophen-2-yl}-methylamine] | more than 80% |  |  |  | 
4 | Cc1cc(C2=NOC(c3cc(Cl)cc(Cl)c3)(C(F)(F)F)C2)sc1CNC(=O)c1ccncc1 (stereo not drawn) [Compound 1.7] | more than 80% |  |  |  | 
5 | COCC(=O)NCc1sc(C2=NOC(c3cc(Cl)cc(Cl)c3)(C(F)(F)F)C2)cc1C (stereo not drawn) [Compound 1.8] | more than 80% | more than 80% |  |  | 
6 | Cc1cc(C2=NOC(c3cc(Cl)cc(Cl)c3)(C(F)(F)F)C2)sc1CNC(=O)CC#N (stereo not drawn) [Compound 1.9] | more than 80% | more than 80% |  |  | 
7 | CSCC(=O)NCc1sc(C2=NOC(c3cc(Cl)cc(Cl)c3)(C(F)(F)F)C2)cc1C (stereo not drawn) [Compound 1.10, N-{5-[5-(3,5-dichloro-phenyl)-5-trifluoromethyl-4,5-dihydro-isoxazol-3-yl]-3-methyl-thiophen-2-ylmethyl}-2-methylsulfanyl-acetamide] | more than 80% | more than 80% |  |  | 
8 | CC(=O)NCc1sc(C2=NOC(c3cc(Cl)cc(Cl)c3)(C(F)(F)F)C2)cc1C (stereo not drawn) [Compound 1.13] | more than 80% | more than 80% |  |  | 
9 | CCCC(=O)NCc1sc(C2=NOC(c3cc(Cl)cc(Cl)c3)(C(F)(F)F)C2)cc1C (stereo not drawn) [Compound 1.14] | more than 80% | more than 80% |  | more than 80% | 
10 | Cc1cc(C2=NOC(c3cc(Cl)cc(Cl)c3)(C(F)(F)F)C2)sc1CNC(=O)C(F)(F)C(F)(F)F (stereo not drawn) [Compound 1.15] | more than 80% |  |  |  | 
11 | Cc1cc(C2=NOC(c3cc(Cl)cc(Cl)c3)(C(F)(F)F)C2)sc1CNC(=O)c1ncccn1 (stereo not drawn) [Compound 1.19] | more than 80% |  |  |  | 
12 | Cc1cc(C2=NOC(c3cc(Cl)cc(Cl)c3)(C(F)(F)F)C2)sc1CNC(=O)C(F)(F)F (stereo not drawn) [Compound 1.23] | more than 80% |  |  |  | 
13 | Cc1cc(C2=NOC(c3cc(Cl)cc(Cl)c3)(C(F)(F)F)C2)sc1CNC(=O)c1nccs1 (stereo not drawn) [Compound 1.25] |  | more than 80% |  |  | 
14 | COCCC(=O)NCc1sc(C2=NOC(c3cc(Cl)cc(Cl)c3)(C(F)(F)F)C2)cc1C (stereo not drawn) [Compound 1.36] | more than 80% | more than 80% |  |  | 
15 | CSC(=O)NCc1sc(C2=NOC(c3cc(Cl)cc(Cl)c3)(C(F)(F)F)C2)cc1C (stereo not drawn) [Compound 1.37] | more than 80% | more than 80% |  |  | 
16 | Cc1cc(C2=NOC(c3cc(Cl)cc(Cl)c3)(C(F)(F)F)C2)sc1CNC(=O)c1ccccc1 (stereo not drawn) [Compound 1.39] |  | more than 80% |  |  | 
17 | Cc1cc(C2=NOC(c3cc(Cl)cc(Cl)c3)(C(F)(F)F)C2)sc1CNC(=O)c1cccc(Cl)c1 (stereo not drawn) [Compound 1.40] |  | more than 80% |  |  | 
18 | Cc1cc(C2=NOC(c3cc(Cl)cc(Cl)c3)(C(F)(F)F)C2)sc1CNC(=O)c1ccc(Cl)cc1 (stereo not drawn) [Compound 1.41] |  | more than 80% |  |  | 
19 | Cc1cc(C2=NOC(c3cc(Cl)cc(Cl)c3)(C(F)(F)F)C2)sc1CNC(=O)C1CCC1 (stereo not drawn) [Compound 1.44] | more than 80% | more than 80% |  | more than 80% | 
20 | CCC(=O)NC(C)c1sc(C2=NOC(c3cc(Cl)cc(Cl)c3)(C(F)(F)F)C2)cc1C (stereo not drawn) [Compound 1.49, N-(1-{5-[5-(3,5-dichloro-phenyl)-5-trifluoromethyl-4,5-dihydro-isoxazol-3-yl]-3-methyl-thiophen-2-yl}-ethyl)-propionamide] | more than 80% | more than 80% |  |  | 
21 | CSCCC(=O)NCc1sc(C2=NOC(c3cc(Cl)cc(Cl)c3)(C(F)(F)F)C2)cc1C (stereo not drawn) [Compound 1.54] | more than 80% | more than 80% |  | more than 80% | 
22 | Cc1cc(C2=NOC(c3cc(Cl)cc(Cl)c3)(C(F)(F)F)C2)sc1CNC(=O)CCS(C)(=O)=O (stereo not drawn) [Compound 1.56] | more than 80% | more than 80% |  |  | 
23 | CCC(=O)NCc1sc(C2=NOC(c3cc(Cl)c(Cl)c(Cl)c3)(C(F)(F)F)C2)cc1C (stereo not drawn) [Compound 2.1] | more than 80% | more than 80% |  | more than 80% | 
24 | Cc1cc(C2=NOC(c3cc(Cl)c(Cl)c(Cl)c3)(C(F)(F)F)C2)sc1CNC(=O)C1CC1 (stereo not drawn) [Compound 2.2] | more than 80% | more than 80% |  | more than 80% | 
25 | Cc1cc(C2=NOC(c3cc(Cl)c(Cl)c(Cl)c3)(C(F)(F)F)C2)oc1CNC(=O)C1CC1 (stereo not drawn) [Compound 3.1, cyclopropanecarboxylic acid {3-methyl-5-[5-(3,4,5-trichloro-phenyl)-5-trifluoromethyl-4,5-dihydro-isoxazol-3-yl]furan-2-ylmethyl}-amide] | more than 80% | more than 80% |  |  | 
26 | CCC(=O)NCc1oc(C2=NOC(c3cc(Cl)c(Cl)c(Cl)c3)(C(F)(F)F)C2)cc1C (stereo not drawn) [Compound 3.5] | more than 80% | more than 80% |  |  | 
